# Assay results taken from PubChem BioAssay AID504834 (National Center for Advancing Translational Sciences (NCATS), 2011).
# Hit rate of the full screen: of about 320,000 compounds, about 22,000 (6.9%) were called active. This list was built around the results that the source calls inconclusive (neither active nor inactive); the mix of calls is not that of the screen. The call rests on the fitted dose curve; in most records, active means well fitted inhibition curve with a large enough effect; inconclusive means small, poorly fitted or top-dose-only effect, or another doubt; inactive means no such curve, though single readings can be large or run the other way. Potencies of inconclusive entries are doubtful fits and often do not repeat.
# Experiment: Primary qHTS for delayed death inhibitors of the malarial parasite plastid, 96 hour incubation
# Settings: P. falciparum luciferase reporter growth; series mostly up to 28.7 µM; activity change, negative = inhibition: at the top concentration
# Method in brief: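 Delayed-death screen, second-generation endpoint: infected erythrocytes, 2% hematocrit, 0.05% parasitemia final; 96 hours at 37 C, 5% CO2; luciferase detection reagent; luminescence decrease equals reduced growth.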
# On the % scale 0 is the no-effect control and ±100 the full control effect; potency means the concentration at half of the fitted maximal effect.
SMILES,"activity change, negative = inhibition",Potency
Cc1cc(-c2nnc(SCC(=O)NC3CC3)n2C(C)C)cs1,inactive: 6.91%,–
CCOC(=O)C(C)Sc1nnc(NC(=O)c2cccc([N+](=O)[O-])c2C)s1 (stereo not drawn),–,"inconclusive: 18.5 µM [inhibitor, single point]"
O=c1[nH]c(=S)n(-c2ccccc2F)c(O)c1C=NCc1ccco1,–,"inconclusive: 10.4 µM [inhibitor, single point]"
CCCOc1ccc2ccccc2c1/C=C1\SC(=O)NC1=O,–,"inconclusive: 9.28 µM [inhibitor, single point]"
Cc1cccc(NC(=O)c2sc3nc4c(c(-c5cccs5)c3c2N)CN(C)CC4)c1,–,"inconclusive: 4.15 µM [inhibitor, partial curve, poor fit]"
c1ccc2cc3c(NCCN4CCOCC4)ccnc3cc2c1,–,active: 0.165 µM
CN(CC(=O)Nc1c(Cl)cccc1Cl)C(=O)Cc1ccc(S(=O)(=O)N2CCOCC2)s1,inactive: 3.08%,–
Cn1cc(C(=O)c2ccc(Cl)cc2Cl)cc1C(=O)NN,inactive: -3.08%,–
CCOC(=O)/C(=N\Nc1cc(Cl)ccc1Cl)N1CC(C)OC(C)C1 (stereo not drawn),–,"inconclusive: 11.7 µM [inhibitor, single point]"
O=C(CSc1nc2c([nH]c3ccccc32)c(=O)n1-c1cccc(Cl)c1)N1CCOCC1,–,"inconclusive: 14.7 µM [inhibitor, partial curve, poor fit]"
Cc1ccc(Cn2cnc3ccccc32)cc1C,–,"inconclusive: 10.4 µM [inhibitor, partial curve]"
Cc1cc(S(=O)(=O)N2CCN(c3ccccc3F)CC2)ccc1-n1cnnn1,–,active: 11.7 µM
CCOC(=O)N1CCN(C(=O)CS(=O)Cc2nc(-c3ccc(OC)c(OC)c3)oc2C)CC1 (stereo not drawn),–,"inconclusive: 18.5 µM [inhibitor, single point]"
COc1ccc(C2(c3ccc(O)cc3O)CC(c3ccccc3Cl)NC(=S)N2)cc1 (stereo not drawn),inactive: -0.791%,–
O=C(CCCn1c(SCC(=O)NCCc2ccccc2)nc2ccccc2c1=O)NCC1CCCO1 (stereo not drawn),inactive: -25.5%,–
CSc1ccccc1OCc1cc(C(=O)NCC(C)(C)N2CCOCC2)no1,–,"inconclusive: 10.4 µM [inhibitor, partial curve, poor fit]"
CCc1ccc(OCC(=O)Nc2cc(S(=O)(=O)CC)ccc2O)cc1,–,"inconclusive: 0.465 µM [inhibitor, partial curve, poor fit]"
Cc1ccc(-n2c(C)cc3c2CCCC3=O)cc1,inactive: -1.43%,–
O=C(c1cc(-c2ccc3c(c2)OCO3)on1)N1CCN(c2ccccc2)CC1,–,"inconclusive: 0.465 µM [inhibitor, partial curve, poor fit]"
CSc1cc(C)[nH]c(=O)n1,inactive: 0%,–
COc1ccc(CN2CCN(C(=O)COc3ccc4ccccc4c3)CC2)c(OC)c1,–,"inconclusive: 16.5 µM [inhibitor, single point]"
CC(NC(=O)[C@H](Cc1c[nH]c2ccccc12)NC(=O)[C@@H]1Cc2ccccc2CN1)c1ccccc1 (stereo partly drawn),–,"inconclusive: 10.4 µM [inhibitor, single point]"
CCOCCCNC(=S)NCCNc1nc2c(C)cccc2cc1C#N,–,"inconclusive: 9.28 µM [inhibitor, single point]"

SMILES,"activity change, negative = inhibition",Potency
CN1CC2=Cc3ccccc3OC23Oc2ccccc2C=C3C1,–,active: 11.7 µM
O=C(Cn1c(=O)oc2cc(S(=O)(=O)N3CCCC3)ccc21)N1CCN(c2ccccc2F)CC1,–,"inconclusive: 10.4 µM [inhibitor, single point]"
CCCNC(=O)NCCc1ccncc1,–,"inconclusive: 11.7 µM [inhibitor, single point]"
CCOC(=O)c1c(/N=C/N(C)C)sc(C=O)c1-c1ccccc1,inactive: 1.41%,–
COc1ccc(CC(NC(C)=O)C(=O)NC2CCN(C(=O)Nc3ccc(C#N)cc3)CC2)cc1OC (stereo not drawn),–,"inconclusive: 18.5 µM [inhibitor, single point]"
COc1ccccc1/C=C/C(=O)Nc1ccc2c(c1)OCCO2,–,active: 13.1 µM
Cc1nc(NC(=O)CSc2nnc3ccccn23)c(Cl)cc1Cl,–,"inconclusive: 4.15 µM [inhibitor, single point]"
COc1ccc(C2SCC(=O)Nc3c2c(=O)[nH]n3C2CCCCCC2)cc1OC (stereo not drawn),–,"inconclusive: 10.4 µM [inhibitor, single point]"
Cc1ccc(N2Cc3ccccc3OC(C)C2=O)cc1 (stereo not drawn),–,active: 9.28 µM
O=C(Nc1ccc(C(=O)NC2CCCCC2)cc1)c1cncc(Br)c1,inactive: -20.5%,–
CCN(CC)CCN(C(=O)c1ccc2c(c1)OCCO2)c1nc2c(Cl)cccc2s1,–,"inconclusive: 10.4 µM [inhibitor, single point]"
Cc1nn(Cc2c(F)c(F)c(F)c(F)c2F)c(C)c1NC(=O)c1ccc(COc2ccc(F)cc2)o1,–,"inconclusive: 0.37 µM [inhibitor, full curve, poor fit]"
O=[N+]([O-])c1cc(F)c2cccnc2c1O,–,"inconclusive: 0.37 µM [inhibitor, full curve, poor fit]"
O=C(CN1CCN(c2ccccc2O)CC1)Nc1ccnn1C1CCCC1,–,"inconclusive: 18.5 µM [inhibitor, single point]"
COCC(C)n1c(C)cc(C(=O)CSc2cc(C)c3ccccc3n2)c1C (stereo not drawn),–,"inconclusive: 18.5 µM [inhibitor, single point]"
CCc1nn(CCCC(=O)NCc2ccco2)c(=O)c2cc3occc3n12,–,"inconclusive: 13.1 µM [inhibitor, single point]"
COc1ccc(N2CCN(C(c3cccs3)C(C)NC(=O)c3ccc4c(c3)OCO4)CC2)cc1 (stereo not drawn),–,"inconclusive: 18.5 µM [inhibitor, single point]"
O=C(Nc1ccc2nc3n(c(=O)c2c1)CCCCC3)c1ccccn1,inactive: -35.2%,–
CC1(C)CC(=O)C2=C(C1)N(c1cccc(O)c1)C1=C(C2)C(=O)CC(C)(C)C1,–,"inconclusive: 2.33 µM [inhibitor, partial curve, poor fit]"
Cc1cc(=O)oc2cc(OC(C)C(=O)Nc3ccc(C(N)=O)cc3)ccc12 (stereo not drawn),–,"inconclusive: 18.5 µM [inhibitor, single point]"
Cn1c(-n2c(CCCN3C(=O)c4ccccc4C3=O)nc3ccccc3c2=O)nc2ccccc21,inactive: 8.34%,–
NC(=O)C1CN(S(=O)(=O)c2ccc(Cl)cc2F)c2ccccc2O1 (stereo not drawn),inactive: 3.34%,–
O=C(CN1CCC(NC(=O)Cc2ccccc2)CC1)Nc1cccc2ccccc12,–,active: 8.28 µM

SMILES,"activity change, negative = inhibition",Potency
Cc1cc(C(=O)OCC(=O)Nc2ncc(C(F)(F)F)cc2Cl)c(C)o1,–,"inconclusive: 18.5 µM [inhibitor, partial curve, poor fit]"
CCN(CC)CCCn1c2c(c(SCC(=O)Nc3cccc(C(C)=O)c3)nc1=O)CCC2,–,"inconclusive: 0.294 µM [inhibitor, full curve, poor fit]"
COc1ccccc1NS(=O)(=O)c1ccc(C(N)=O)cc1,inactive: 2.66%,–
Cn1c(=O)[nH]c(=O)c2c1nc(Br)n2Cc1ccccc1Cl,inactive: 3.68%,–
O=C(CN(Cc1ccccc1)S(=O)(=O)c1ccc(Cl)cc1)NCC1CCCO1 (stereo not drawn),–,"inconclusive: 0.185 µM [inhibitor, full curve, poor fit]"
CCCc1ccc(OCCNC(C)=O)cc1,–,"inconclusive: 10.4 µM [inhibitor, partial curve, poor fit]"
Cc1cccc(OCc2nnc(SCC(=O)Nc3cccc(C(=O)N4CCOCC4)c3)n2C)c1,–,"inconclusive: 10.4 µM [inhibitor, partial curve, poor fit]"
COc1cc2c(cc1OC)CN(C(=O)c1ccco1)CC2,–,"inconclusive: 8.28 µM [inhibitor, partial curve, poor fit]"
CCOC(=O)c1cnc(-n2nc(C)cc2C)nc1Nc1cccc(C(=O)O)c1,–,"inconclusive: 3.7 µM [inhibitor, partial curve, poor fit]"
CCOC(=O)N1CCN(C(=O)c2ccc3c(=O)n4c(nc3c2)CCCCC4)CC1,–,"inconclusive: 13.1 µM [inhibitor, single point]"
CCN(CC)C(=O)CSc1nnc(-c2ccccc2)n1-c1ccccc1,–,"inconclusive: 16.5 µM [inhibitor, single point]"
CCCC(=O)Nc1cccc(C(=O)Nc2ccccc2OCC)c1,–,"inconclusive: 10.4 µM [inhibitor, partial curve]"
O=Cc1c(NCc2ccc(F)cc2)c2ccccc2[nH]c1=O,–,active: 10.4 µM
O=C(NCC1CCCO1)/C(=C\c1ccc(Cl)cc1)NC(=O)c1ccccc1 (stereo not drawn),–,active: 0.828 µM
CCCc1ccc(C(=O)O/N=C(\N)c2ccccn2)cc1,–,"inconclusive: 13.1 µM [inhibitor, single point]"
COc1ccc(NC(=O)COC(=O)c2cc(Cl)ccc2O)cc1S(=O)(=O)N1CCCCC1,–,"inconclusive: 0.928 µM [inhibitor, partial curve, poor fit]"
COc1ccc(C(=O)OCC#CCSc2nnc(-c3cccc4ccccc34)o2)cc1,inactive: 2.36%,–
COCCCN1CN=C(Nc2nc3ccccc3o2)NC1,inactive: -4.89%,–
O=C(Nc1cc(Oc2ccccc2)cc([N+](=O)[O-])c1)C12CC3CC(C1)CC(n1cnc(Cl)n1)(C3)C2,–,"inconclusive: 0.0026 µM [inhibitor, full curve, poor fit]"
N#Cc1ccc(CN2CCN(C(=O)c3cccc(S(=O)(=O)N4CCCCCC4)c3)CC2)cc1,–,"inconclusive: 14.7 µM [inhibitor, partial curve, poor fit]"
CC1(C)CC(n2c(=S)[nH]c3ccccc3c2=O)CCO1 (stereo not drawn),–,"inconclusive: 11.7 µM [inhibitor, partial curve]"
Cc1cccc(OCc2nnc(SCC(=O)N3CCN(c4ccccc4)CC3)o2)c1C,–,"inconclusive: 18.5 µM [inhibitor, single point]"

# Single records (already shown). Values in the order: activity change, negative = inhibition | Potency
# `O=C(CN(Cc1ccccc1)S(=O)(=O)c1ccc(Cl)cc1)NCC1CCCO1` (stereo not drawn) reads – | inconclusive: 0.185 µM [inhibitor, full curve, poor fit]
# `CCCc1ccc(C(=O)O/N=C(\N)c2ccccn2)cc1` reads – | inconclusive: 13.1 µM [inhibitor, single point]
